According to patent US20210269836A1 (JOHN INNES CENTRE, published 2021):
Results are given in words; binding and its absence hold for the method and conditions named. Some entries that bind do so weakly or less than the wild type. Where a sequence is shown, tags or fusion partners need not be part of it. Each block holds one binder with its values, some of them ahead of it.

How the values were obtained:
[1] = target: T1, YFPC-DPAS (dehydroprecondylocarpine acetate synthase fused at its N-terminus to the C-terminal split YFP fragment) (Catharanthus roseus); assay: BiFC in C. roseus cells
T1 sequence: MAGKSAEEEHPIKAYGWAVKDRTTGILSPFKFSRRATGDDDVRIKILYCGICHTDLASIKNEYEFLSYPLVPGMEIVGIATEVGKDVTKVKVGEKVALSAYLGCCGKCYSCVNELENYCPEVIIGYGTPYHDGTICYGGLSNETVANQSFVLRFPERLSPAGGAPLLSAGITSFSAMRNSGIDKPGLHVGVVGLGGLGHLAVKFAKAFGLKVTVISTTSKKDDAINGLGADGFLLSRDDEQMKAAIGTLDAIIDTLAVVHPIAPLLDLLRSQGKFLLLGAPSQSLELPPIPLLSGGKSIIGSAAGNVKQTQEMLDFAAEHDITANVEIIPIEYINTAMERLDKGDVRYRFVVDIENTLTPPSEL

[2] = target: T1, YFPC-DPAS (dehydroprecondylocarpine acetate synthase fused at its N-terminus to the C-terminal split YFP fragment) (Catharanthus roseus); assay: BiFC in C. roseus cells, co-expression of DPAS-YFPN and YFPC-DPAS
[3] = target: T1, YFPC-DPAS (dehydroprecondylocarpine acetate synthase fused at its N-terminus to the C-terminal split YFP fragment) (Catharanthus roseus); assay: BiFC in C. roseus cells, co-expression of YFPN-DPAS and YFPC-DPAS

binding [1]: binds
B1: TS-YFPN (Tabersonine Synthase fused at its C-terminus to the N-terminal split YFP fragment) (enzyme)
chain: MGSSDETIFDLPPYIKVFKDGRVERLHSSPYVPPSLNDPETGGVSWKDVPISSVVSARIYLPKINNHDEKLPIIVYFHGAGFCLESAFKSFFHTYVKHFVAEAKAIAVSVEFRLAPENHLPAAYEDCWEALQWVASHVGLDISSLKTCIDKDPWIINYADFDRLYLWGDSTGANIVHNTLIRSGKEKLNGGKVKILGAILYYPYFLIRTSSKQSDYMENEYRSYWKLAYPDAPGGNDNPMINPTAENAPDLAGYGCSRLLISMVADEARDITLLYIDALEKSGWKGELDVADFDKQYFELFEMETEVAKNMLRRLASFIK
notes: BiFC fusion expressed transiently inside C. roseus cells; also called TS-YN; not shown: N-terminal split YFP fragment (YFPN) from plasmid pSCA-SPYNE173

binding [2]: binds
B2: DPAS-YFPN (DPAS fused at its C-terminus to the N-terminal split YFP fragment) (enzyme, not shown: large carriers)
chain: T1 sequence

binding [3]: binds
B3: YFPN-DPAS (DPAS fused at its N-terminus to the N-terminal split YFP fragment) (enzyme, not shown: large carriers)
chain: T1 sequence
